These are yes or no findings as the source states them, for the method shown. In cells and extracts the contact can be indirect. Some results given as binding are weak or reduced against the parent protein; the word gives no strength. For some of these results: Tags and fused reporters may be left off the sequences shown.
Key:
Assay in all cases: co-IP
[1] = molecular target: HA-Zdhhc14 (mouse) (mouse) (UniProt Q8BQQ1)
[2] = molecular target: T1, HA-Zdhhc20 (mouse) (mouse) (UniProt Q5Y5T1)
T1 sequence: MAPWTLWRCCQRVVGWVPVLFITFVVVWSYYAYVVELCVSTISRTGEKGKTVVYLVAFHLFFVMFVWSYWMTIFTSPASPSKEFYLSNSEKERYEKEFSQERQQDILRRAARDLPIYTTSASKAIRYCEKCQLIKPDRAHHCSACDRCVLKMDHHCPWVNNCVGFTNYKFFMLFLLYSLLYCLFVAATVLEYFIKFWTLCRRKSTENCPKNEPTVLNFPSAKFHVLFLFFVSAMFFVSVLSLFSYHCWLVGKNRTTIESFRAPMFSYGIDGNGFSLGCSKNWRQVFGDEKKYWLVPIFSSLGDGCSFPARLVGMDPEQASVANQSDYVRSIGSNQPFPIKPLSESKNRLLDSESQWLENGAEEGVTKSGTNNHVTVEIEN

Amino acid sequences for entries named in this document (tags omitted). A change or cut given only in a name is not applied to a line headed by its entry.
UniProt Q8BQQ1, whole entry: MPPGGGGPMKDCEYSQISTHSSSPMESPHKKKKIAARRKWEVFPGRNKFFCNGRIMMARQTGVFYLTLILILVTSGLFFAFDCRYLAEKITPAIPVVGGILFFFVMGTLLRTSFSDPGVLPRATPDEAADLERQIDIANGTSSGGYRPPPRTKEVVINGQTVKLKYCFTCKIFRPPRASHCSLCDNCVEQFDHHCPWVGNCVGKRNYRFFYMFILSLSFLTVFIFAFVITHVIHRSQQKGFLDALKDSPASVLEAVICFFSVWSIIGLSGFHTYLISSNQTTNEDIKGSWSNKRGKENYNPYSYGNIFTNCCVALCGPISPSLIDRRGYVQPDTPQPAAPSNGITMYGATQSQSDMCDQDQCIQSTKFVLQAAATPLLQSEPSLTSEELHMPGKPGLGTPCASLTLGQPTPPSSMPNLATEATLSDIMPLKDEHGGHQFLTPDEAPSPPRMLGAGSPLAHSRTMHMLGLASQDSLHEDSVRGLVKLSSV
UniProt Q80TN5, whole entry: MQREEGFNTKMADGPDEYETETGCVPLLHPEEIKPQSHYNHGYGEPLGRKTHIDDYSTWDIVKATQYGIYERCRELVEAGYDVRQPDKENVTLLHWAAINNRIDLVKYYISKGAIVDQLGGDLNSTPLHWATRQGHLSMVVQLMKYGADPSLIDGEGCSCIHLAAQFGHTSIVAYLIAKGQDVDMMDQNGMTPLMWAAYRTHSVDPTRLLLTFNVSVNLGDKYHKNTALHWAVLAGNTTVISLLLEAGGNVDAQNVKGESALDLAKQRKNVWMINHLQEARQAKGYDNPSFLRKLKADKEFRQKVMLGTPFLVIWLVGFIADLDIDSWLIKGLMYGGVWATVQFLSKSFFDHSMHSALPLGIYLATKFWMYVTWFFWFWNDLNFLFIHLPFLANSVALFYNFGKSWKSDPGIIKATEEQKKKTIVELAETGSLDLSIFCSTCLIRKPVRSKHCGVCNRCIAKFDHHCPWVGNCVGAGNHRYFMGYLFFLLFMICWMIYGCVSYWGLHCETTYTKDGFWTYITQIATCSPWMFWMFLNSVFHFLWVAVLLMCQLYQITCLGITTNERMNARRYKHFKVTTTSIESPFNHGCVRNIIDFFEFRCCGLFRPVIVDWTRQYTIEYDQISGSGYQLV
UniProt Q7Z5G4, whole entry: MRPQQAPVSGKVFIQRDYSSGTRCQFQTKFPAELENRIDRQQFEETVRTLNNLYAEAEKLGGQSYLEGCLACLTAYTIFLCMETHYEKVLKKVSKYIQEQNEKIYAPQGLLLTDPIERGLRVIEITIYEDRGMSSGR

[3] = molecular target: Zdhhc5^RNAR (Tyr146Ala) (mouse) (UniProt Q8VDZ4)
[4] = molecular target: Zdhhc5^RNFR (Tyr146Phe) (mouse) (UniProt Q8VDZ4)
[5] = molecular target: HA-Zdhhc5^RNYA (Arg147Ala) (mouse) (UniProt Q8VDZ4)
[6] = molecular target: T2, HA-Zdhhc25 (mouse) (mouse) (UniProt Q810M4)
T2 sequence: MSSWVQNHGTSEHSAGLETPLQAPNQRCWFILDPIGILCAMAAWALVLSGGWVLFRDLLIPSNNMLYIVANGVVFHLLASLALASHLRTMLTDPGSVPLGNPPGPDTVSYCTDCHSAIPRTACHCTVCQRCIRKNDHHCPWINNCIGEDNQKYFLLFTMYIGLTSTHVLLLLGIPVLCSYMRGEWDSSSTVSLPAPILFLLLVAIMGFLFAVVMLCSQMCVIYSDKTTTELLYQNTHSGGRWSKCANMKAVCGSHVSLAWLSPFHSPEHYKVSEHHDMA

[7] = molecular target: HA-Zdhhc17 (mouse) (mouse) (UniProt Q80TN5)
[8] = molecular target: Zdhhc5^ANYA (Arg144Ala, Arg147Ala) (mouse) (UniProt Q8VDZ4)
[9] = molecular target: Zdhhc5^ANYR (Arg144Ala) (mouse) (UniProt Q8VDZ4)
[10] = molecular target: T3, HA-Zdhhc12 (mouse) (mouse) (UniProt Q8VC90)
T3 sequence: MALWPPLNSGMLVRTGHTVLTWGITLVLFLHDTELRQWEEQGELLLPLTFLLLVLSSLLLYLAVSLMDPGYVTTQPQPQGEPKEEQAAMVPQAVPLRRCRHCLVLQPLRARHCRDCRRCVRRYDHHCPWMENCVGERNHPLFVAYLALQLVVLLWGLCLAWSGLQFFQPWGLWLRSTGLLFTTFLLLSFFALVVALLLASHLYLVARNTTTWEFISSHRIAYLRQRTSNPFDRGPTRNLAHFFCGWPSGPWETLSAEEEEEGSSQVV

binding [1]: binds
binding [2]: no binding
binding [3]: binds
binding [4]: binds
binding [5]: no binding
binding [6]: no binding
binding [7]: no binding
binding [8]: no binding
binding [9]: binds
binding [10]: no binding
Substance: endogenous human GOLGA7 (from UniProt Q7Z5G4 1-137)
